We go through one molecule from patent CN108822212A.

Amino acid sequences for entries named in this document (tags omitted). A change or cut given only in a name is not applied to a line headed by its entry. Chains listed by the source or under a name are the forms on record and can include a tag or linker.
KIT WT D4-5蛋白 (P10721, form named): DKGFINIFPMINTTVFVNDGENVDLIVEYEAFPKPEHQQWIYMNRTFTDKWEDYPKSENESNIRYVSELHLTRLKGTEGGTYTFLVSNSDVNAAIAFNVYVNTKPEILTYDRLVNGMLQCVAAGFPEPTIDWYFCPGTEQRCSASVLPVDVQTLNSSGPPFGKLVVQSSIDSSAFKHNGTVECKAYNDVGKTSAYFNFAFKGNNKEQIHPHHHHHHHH

These are yes or no findings as the source states them, for the method shown. Some results given as binding are weak or reduced against the parent protein; the word gives no strength.

The experiment has as its target KIT WT D4-5蛋白 (human) (UniProt P10721). Description: ELISA, D4-5 protein coated, antibody 0.03-66.67 nM. (In general: ELISA stands for enzyme-linked immunosorbent assay.)

B1: 单克隆抗体3G2 (antibody, V domains shown, not shown: a dimerising Fc or GST)
VH: EVQLQESGPGLVKPSQSLSLTCTVAGYSITSDYAWNWIRQFPGNRLEWVGYISYSGSTSYNPSLKSRISITRDTSQNQFFLQLNSVTTEDTATYYCTRWRYRYTLAMDYWGQGTSVTVSS
VL: DIVLTQSPAITAASLGQKVTITCSASSSISYIHWYQQKSGTSPKPWIYEIYKLASGVPPRFSGSGSGTSYSLTISSMEAEDAAIYYCQQWNYPFTFGSGTKLEIKR
Take B1: the binding result is “binds”.
